Results are given in words; binding and its absence hold for the method and conditions named. Binding seen in cells or lysates may run through a third protein. Binding calls can cover weak binding; strength is not graded here.

Sequences of proteins named here, by UniProt entry; tags and fusion partners are left off. A change or cut given only in a name is not applied to a line headed by its entry.
UniProt K4D9Y4: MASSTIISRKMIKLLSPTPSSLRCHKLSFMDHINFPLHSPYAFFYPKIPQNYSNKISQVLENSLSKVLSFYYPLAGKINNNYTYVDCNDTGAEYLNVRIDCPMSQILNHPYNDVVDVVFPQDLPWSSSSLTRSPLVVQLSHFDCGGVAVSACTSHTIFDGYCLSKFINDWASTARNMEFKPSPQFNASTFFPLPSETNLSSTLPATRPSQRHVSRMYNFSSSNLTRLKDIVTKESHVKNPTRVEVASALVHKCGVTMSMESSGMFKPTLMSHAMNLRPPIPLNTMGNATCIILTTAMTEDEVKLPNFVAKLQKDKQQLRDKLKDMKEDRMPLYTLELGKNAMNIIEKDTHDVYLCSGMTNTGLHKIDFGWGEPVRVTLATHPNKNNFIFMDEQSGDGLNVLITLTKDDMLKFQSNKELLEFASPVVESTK
UniProt K4DBH0: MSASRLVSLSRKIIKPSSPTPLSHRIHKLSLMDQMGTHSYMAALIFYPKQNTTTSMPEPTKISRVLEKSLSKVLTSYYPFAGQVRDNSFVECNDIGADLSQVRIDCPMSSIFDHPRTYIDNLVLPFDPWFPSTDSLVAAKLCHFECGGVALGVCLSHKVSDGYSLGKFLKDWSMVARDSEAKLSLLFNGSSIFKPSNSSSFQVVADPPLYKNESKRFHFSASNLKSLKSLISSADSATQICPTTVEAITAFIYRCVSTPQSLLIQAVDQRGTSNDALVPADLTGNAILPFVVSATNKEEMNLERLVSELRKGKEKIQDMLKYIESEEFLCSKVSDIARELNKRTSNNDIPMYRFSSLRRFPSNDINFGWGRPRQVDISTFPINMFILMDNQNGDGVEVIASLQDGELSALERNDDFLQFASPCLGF

The target of this assay is SlASAT3–cYFP (Solanum lycopersicum (tomato)) (UniProt K4D9Y4). Nature of the assay: split reporter; BiFC in N. benthamiana leaves co-infiltrated 1:1:1 with ER RFP marker, nYFP and cYFP constructs; YFP fluorescence by confocal microscopy 72 h after infiltration.

“nYFP–SlASAT1 (from UniProt K4DBH0) (enzyme)”: the binding result is listed as “binds”.
